According to patent US20080280824A1, “COMPOSITIONS AND METHODS FOR TREATMENT OF CANCER OR NEURODEGENERATIVE DISEASE WITH PEPTIDE BASED MICROTUBULE STABILIZERS OR INHIBITORS” (University of Washington, priority 2007, published 2008):
Results are given in words; binding and its absence hold for the method and conditions named. Some binding calls cover weakened binding; strength is not graded here.

Chains of the proteins cited; added tags and fusions are not shown. Lines headed by an entry give the natural chain unless they say otherwise; changes in a name come on top.
UniProt P81947: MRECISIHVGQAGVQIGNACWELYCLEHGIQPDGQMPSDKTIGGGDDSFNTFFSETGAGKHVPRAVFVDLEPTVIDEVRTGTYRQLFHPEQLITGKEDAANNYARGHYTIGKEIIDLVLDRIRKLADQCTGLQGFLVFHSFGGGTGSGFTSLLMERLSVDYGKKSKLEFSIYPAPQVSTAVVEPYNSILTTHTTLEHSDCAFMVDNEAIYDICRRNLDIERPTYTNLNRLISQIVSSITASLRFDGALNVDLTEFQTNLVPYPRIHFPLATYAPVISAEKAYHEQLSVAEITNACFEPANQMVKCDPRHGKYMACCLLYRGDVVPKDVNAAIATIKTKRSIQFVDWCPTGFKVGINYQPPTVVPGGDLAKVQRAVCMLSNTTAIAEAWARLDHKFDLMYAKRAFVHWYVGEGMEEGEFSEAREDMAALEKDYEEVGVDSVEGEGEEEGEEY
UniProt Q6B856: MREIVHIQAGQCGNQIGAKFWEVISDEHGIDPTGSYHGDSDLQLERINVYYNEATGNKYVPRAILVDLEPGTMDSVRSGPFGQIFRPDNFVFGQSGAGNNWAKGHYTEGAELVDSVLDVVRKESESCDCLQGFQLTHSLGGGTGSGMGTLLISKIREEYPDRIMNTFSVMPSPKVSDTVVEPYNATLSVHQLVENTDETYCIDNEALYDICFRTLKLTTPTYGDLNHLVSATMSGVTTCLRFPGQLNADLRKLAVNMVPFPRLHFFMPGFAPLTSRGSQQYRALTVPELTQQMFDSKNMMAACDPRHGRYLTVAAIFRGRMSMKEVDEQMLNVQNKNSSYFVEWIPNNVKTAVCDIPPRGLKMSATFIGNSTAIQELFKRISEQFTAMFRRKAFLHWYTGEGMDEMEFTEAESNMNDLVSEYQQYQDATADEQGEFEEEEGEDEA

How the values were obtained:
[1] = biological target: T1, Bovine brain tubulin (bovine) (UniProt P81947+Q6B856); test: inferred from the microtubule assembly assay (DAPI fluorescence); no direct binding assay
[2] = biological target: T1, Bovine brain tubulin (bovine); test: inferred from microtubule assembly and disassembly assays (DAPI fluorescence); no direct binding assay

Binder | binding [1] | binding [2]
LTITSSLSSDGV [synthetic αB crystallin peptide 131…142 (LT)] | binds | 
ERTIPITRE [synthetic αB crystallin peptide 156…164 (ER)] | binds | 
FISREFHR [synthetic αB crystallin peptide 113FISREFHR120 (FI)] |  | binds
